Source: doi:10.1371/journal.pone.0140310, primary screening data, rounded.

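The test systems are human melanoma cell lines, treated with a pair of drugs for 72 h and then stained and imaged. Each value is the cleaved-PARP-positive fraction of nuclei relative to DMSO-treated wells, in %, so that 100 equals the control and higher values mean more apoptosis. Every drug was used at one fixed concentration, the higher of two screened. No replicate spread is given; individual values may be noisy. The marker varies much from line to line, for technical or biological reasons.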
This is part of the screen, not chosen by result.
An entry leaves out what has no value listed here.

Compounds and concentrations:
BMS-536924 (1 µM): Cc1cc(N2CCOCC2)cc2[nH]c(-c3c(NC[C@@H](O)c4cccc(Cl)c4)cc[nH]c3=O)nc12
AZD7762 (0.1 µM): NC(=O)Nc1cc(-c2cccc(F)c2)sc1C(=O)N[C@H]1CCCNC1
NVP-TAE684 (0.4 µM): COc1cc(N2CCC(N3CCN(C)CC3)CC2)ccc1Nc1ncc(Cl)c(Nc2ccccc2S(=O)(=O)C(C)C)n1
tozasertib (0.03 µM): Cc1cc(Nc2cc(N3CCN(C)CC3)nc(Sc3ccc(NC(=O)C4CC4)cc3)n2)n[nH]1
BI-78D3 (1 µM): O=c1[nH]nc(Sc2ncc([N+](=O)[O-])s2)n1-c1ccc2c(c1)OCCO2
GW0742 (10 µM): Cc1cc(SCc2sc(-c3ccc(C(F)(F)F)c(F)c3)nc2C)ccc1OCC(=O)O
bexarotene (10 µM): C=C(c1ccc(C(=O)O)cc1)c1cc2c(cc1C)C(C)(C)CCC2(C)C
darinaparsin (2 µM): C[As](C)SC[C@H](NC(=O)CC[C@H](N)C(=O)O)C(=O)NCC(=O)O
tanespimycin (0.01 µM): C=CCNC1=C2C[C@@H](C)C[C@H](OC)[C@H](O)[C@@H](C)/C=C(\C)[C@H](OC(N)=O)[C@@H](OC)/C=C\C=C(/C)C(=O)NC(=CC1=O)C2=O
indole-3-carbinol (4 µM): OCc1c[nH]c2ccccc12

{"pair": "indole-3-carbinol + NVP-TAE684", "501mel": 198, "IST-MEL1": 39.2, "WM451Lu": 43.6, "COLO 800": 161, "LB2518-MEL": 99.6}
{"pair": "NVP-TAE684 + GW0742", "501mel": 147, "WM1745": 127, "IST-MEL1": 57.2, "WM451Lu": 232, "COLO 800": 151, "LB2518-MEL": 57.3}
{"pair": "BMS-536924 + bexarotene", "WM1745": 134, "IST-MEL1": 116, "WM451Lu": 44.4, "COLO 800": 89.8, "LB2518-MEL": 96.9}
{"pair": "BMS-536924 + AZD7762", "WM1745": 283, "IST-MEL1": 25.9, "WM451Lu": 307, "COLO 800": 327, "LB2518-MEL": 159}
{"pair": "BI-78D3 + indole-3-carbinol", "WM1745": 111, "IST-MEL1": 106, "WM451Lu": 35.1, "COLO 800": 108}
{"pair": "bexarotene + GW0742", "501mel": 138, "IST-MEL1": 94.8, "WM451Lu": 198, "COLO 800": 116, "LB2518-MEL": 83.4}
{"pair": "bexarotene + tanespimycin", "WM1745": 196, "IST-MEL1": 87.9, "WM451Lu": 82.3, "COLO 800": 38.9, "LB2518-MEL": 480}
{"pair": "tozasertib + darinaparsin", "WM1745": 146, "IST-MEL1": 128, "WM451Lu": 394, "COLO 800": 170, "LB2518-MEL": 44.8}
{"pair": "darinaparsin + BMS-536924", "WM1745": 146, "IST-MEL1": 133, "WM451Lu": 299, "COLO 800": 290, "LB2518-MEL": 135}
{"pair": "GW0742 + tanespimycin", "501mel": 67.7, "IST-MEL1": 14.1, "WM451Lu": 93.4, "COLO 800": 117, "LB2518-MEL": 27.5}
{"pair": "bexarotene + BI-78D3", "WM1745": 91.5, "IST-MEL1": 128, "WM451Lu": 91.7, "COLO 800": 141, "LB2518-MEL": 176}
{"pair": "bexarotene + darinaparsin", "WM1745": 92.0, "IST-MEL1": 136, "WM451Lu": 147, "COLO 800": 79.7, "LB2518-MEL": 411}
{"pair": "BMS-536924 + NVP-TAE684", "501mel": 84.6, "WM1745": 184, "IST-MEL1": 32.4, "WM451Lu": 82.5, "COLO 800": 189, "LB2518-MEL": 40.0}
{"pair": "BI-78D3 + tanespimycin", "WM1745": 133, "IST-MEL1": 149, "WM451Lu": 62.8, "COLO 800": 92.8, "LB2518-MEL": 82.1}
{"pair": "darinaparsin + NVP-TAE684", "WM1745": 168, "IST-MEL1": 67.9, "WM451Lu": 202, "COLO 800": 121}
{"pair": "indole-3-carbinol + darinaparsin", "WM1745": 121, "IST-MEL1": 69.5, "WM451Lu": 161, "COLO 800": 115, "LB2518-MEL": 272}
{"pair": "tozasertib + BI-78D3", "WM1745": 185, "IST-MEL1": 54.5, "WM451Lu": 111, "COLO 800": 87.6, "LB2518-MEL": 52.3}
{"pair": "GW0742 + AZD7762", "501mel": 140, "WM1745": 144, "IST-MEL1": 32.0, "WM451Lu": 169, "COLO 800": 90.9, "LB2518-MEL": 485}
{"pair": "darinaparsin + GW0742", "501mel": 122, "WM1745": 72.5, "IST-MEL1": 81.2, "WM451Lu": 153, "COLO 800": 118, "LB2518-MEL": 61.7}
{"pair": "tozasertib + AZD7762", "WM1745": 185, "IST-MEL1": 57.9, "WM451Lu": 771, "COLO 800": 355, "LB2518-MEL": 374}
{"pair": "GW0742 + BI-78D3", "501mel": 127, "IST-MEL1": 38.7, "WM451Lu": 68.7, "COLO 800": 43.3, "LB2518-MEL": 126}
{"pair": "tozasertib + BMS-536924", "WM1745": 180, "IST-MEL1": 296, "WM451Lu": 94.1, "COLO 800": 269}
{"pair": "NVP-TAE684 + bexarotene", "501mel": 86.1, "IST-MEL1": 86.4, "WM451Lu": 93.5, "COLO 800": 295, "LB2518-MEL": 161}
{"pair": "BI-78D3 + darinaparsin", "WM1745": 111, "IST-MEL1": 119, "WM451Lu": 101, "COLO 800": 129, "LB2518-MEL": 73.7}
{"pair": "BMS-536924 + indole-3-carbinol", "WM1745": 125, "IST-MEL1": 65.5, "WM451Lu": 161, "COLO 800": 228, "LB2518-MEL": 117}
{"pair": "BMS-536924 + tanespimycin", "WM1745": 156, "IST-MEL1": 83.0, "WM451Lu": 189, "COLO 800": 446, "LB2518-MEL": 142}
{"pair": "indole-3-carbinol + AZD7762", "WM1745": 106, "IST-MEL1": 88.4, "WM451Lu": 132, "COLO 800": 107, "LB2518-MEL": 243}
{"pair": "BI-78D3 + AZD7762", "WM1745": 171, "IST-MEL1": 70.8, "WM451Lu": 577, "COLO 800": 302, "LB2518-MEL": 127}
{"pair": "AZD7762 + tanespimycin", "WM1745": 241, "IST-MEL1": 415, "WM451Lu": 679, "COLO 800": 157, "LB2518-MEL": 496}
{"pair": "BI-78D3 + BMS-536924", "WM1745": 127, "IST-MEL1": 29.2, "WM451Lu": 115, "COLO 800": 109, "LB2518-MEL": 124}
{"pair": "tanespimycin + tozasertib", "WM1745": 160, "IST-MEL1": 90.7, "WM451Lu": 237, "COLO 800": 284, "LB2518-MEL": 111}
{"pair": "indole-3-carbinol + tanespimycin", "WM1745": 171, "IST-MEL1": 116, "WM451Lu": 262, "COLO 800": 115, "LB2518-MEL": 115}
{"pair": "AZD7762 + darinaparsin", "WM1745": 124, "IST-MEL1": 72.3, "WM451Lu": 815, "COLO 800": 351, "LB2518-MEL": 309}

4 of the entries, repeated:

- GW0742 + tanespimycin | 501mel: 67.7; IST-MEL1: 14.1; WM451Lu: 93.4; COLO 800: 117; LB2518-MEL: 27.5
- BI-78D3 + tanespimycin | WM1745: 133; IST-MEL1: 149; WM451Lu: 62.8; COLO 800: 92.8; LB2518-MEL: 82.1
- AZD7762 + darinaparsin | WM1745: 124; IST-MEL1: 72.3; WM451Lu: 815; COLO 800: 351; LB2518-MEL: 309
- GW0742 + AZD7762 | 501mel: 140; WM1745: 144; IST-MEL1: 32.0; WM451Lu: 169; COLO 800: 90.9; LB2518-MEL: 485